The numbers were not newly measured in US12168006B2, “Cancer therapy by degrading dual MEK signaling” (The Board of Trustees of the University of Illinois, priority 2017, dated 2024), which cites them from elsewhere.

In the data set the test system is AKT. As to conditions: at 1 μM; cited from earlier work.

`Cc1ccc(NC(=O)c2ccc(CN3CCN(C)CC3)cc2)cc1Nc1nccc(-c2cccnc2)n1` [Imatinib]: the “% Inhibition of AKT” value is on record as 3.2% at 1 μM.
